Our source for the binding values is article PMC5548808, “Structural and functional insights into the lipopolysaccharide ABC transporter LptB2FG” (Nature Communications, 2017).

Sequences of proteins named here, by UniProt entry; tags and fusion partners are left off. A change or cut given only in a name is not applied to a line headed by its entry.
UniProt A0A1Y0Q3P9: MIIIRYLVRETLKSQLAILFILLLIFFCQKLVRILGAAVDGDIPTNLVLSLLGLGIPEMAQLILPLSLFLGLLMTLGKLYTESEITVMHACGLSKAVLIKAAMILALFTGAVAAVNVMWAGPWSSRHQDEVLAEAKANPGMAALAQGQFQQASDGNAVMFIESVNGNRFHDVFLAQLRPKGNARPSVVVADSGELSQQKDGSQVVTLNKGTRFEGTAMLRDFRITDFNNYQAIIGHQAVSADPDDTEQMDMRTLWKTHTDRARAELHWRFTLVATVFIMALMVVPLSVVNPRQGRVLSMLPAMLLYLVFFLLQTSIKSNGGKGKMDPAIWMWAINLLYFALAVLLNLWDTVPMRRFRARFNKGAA
UniProt A0A1Y0Q3C0: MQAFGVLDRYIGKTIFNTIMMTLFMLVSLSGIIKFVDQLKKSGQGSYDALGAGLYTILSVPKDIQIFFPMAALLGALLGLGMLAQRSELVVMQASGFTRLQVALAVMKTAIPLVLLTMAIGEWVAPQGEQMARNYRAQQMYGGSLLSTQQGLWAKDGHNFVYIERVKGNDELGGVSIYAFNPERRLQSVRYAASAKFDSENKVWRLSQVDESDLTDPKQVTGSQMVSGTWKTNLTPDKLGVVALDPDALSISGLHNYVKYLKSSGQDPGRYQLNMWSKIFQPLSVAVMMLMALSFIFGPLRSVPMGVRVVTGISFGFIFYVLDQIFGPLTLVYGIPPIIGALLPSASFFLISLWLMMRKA

These are yes or no findings as the source states them, for the method shown. Binding can be weak; no strength is given.

The target in assay [1] is LptG of Klebsiella pneumoniae (Klebsiella pneumoniae). Nature of the assay: crystal structure; K. pneumoniae LptB2FG complex in detergent (Cymal-5, DDM, DMNG), nucleotide-free; sitting drop, room temperature, 0.1 mM MES pH 6.5, 0.1 M sodium chloride, 0.1 M lithium sulfate, 24% PEG 300; Pt-SAD, 3.7 A; both purified.
Assay [2] addresses LptB of Klebsiella pneumoniae (Klebsiella pneumoniae). The assay is described as above.

As for “LptF of Klebsiella pneumoniae (from UniProt A0A1Y0Q3P9)”, the binding entry in assay [1] and in assay [2] was “binds” throughout.

For the substance “LptG of Klebsiella pneumoniae (from UniProt A0A1Y0Q3C0)”, the binding entry in assay [2] was “binds”.
